The supplement of paper PMC10849652
The list shows a part of the results.

By UniProt entry, the sequences of proteins in these tests, tags left out. Where a name states a change or a piece, a line headed by the entry shows the natural chain unless it says otherwise.
UniProt P22102: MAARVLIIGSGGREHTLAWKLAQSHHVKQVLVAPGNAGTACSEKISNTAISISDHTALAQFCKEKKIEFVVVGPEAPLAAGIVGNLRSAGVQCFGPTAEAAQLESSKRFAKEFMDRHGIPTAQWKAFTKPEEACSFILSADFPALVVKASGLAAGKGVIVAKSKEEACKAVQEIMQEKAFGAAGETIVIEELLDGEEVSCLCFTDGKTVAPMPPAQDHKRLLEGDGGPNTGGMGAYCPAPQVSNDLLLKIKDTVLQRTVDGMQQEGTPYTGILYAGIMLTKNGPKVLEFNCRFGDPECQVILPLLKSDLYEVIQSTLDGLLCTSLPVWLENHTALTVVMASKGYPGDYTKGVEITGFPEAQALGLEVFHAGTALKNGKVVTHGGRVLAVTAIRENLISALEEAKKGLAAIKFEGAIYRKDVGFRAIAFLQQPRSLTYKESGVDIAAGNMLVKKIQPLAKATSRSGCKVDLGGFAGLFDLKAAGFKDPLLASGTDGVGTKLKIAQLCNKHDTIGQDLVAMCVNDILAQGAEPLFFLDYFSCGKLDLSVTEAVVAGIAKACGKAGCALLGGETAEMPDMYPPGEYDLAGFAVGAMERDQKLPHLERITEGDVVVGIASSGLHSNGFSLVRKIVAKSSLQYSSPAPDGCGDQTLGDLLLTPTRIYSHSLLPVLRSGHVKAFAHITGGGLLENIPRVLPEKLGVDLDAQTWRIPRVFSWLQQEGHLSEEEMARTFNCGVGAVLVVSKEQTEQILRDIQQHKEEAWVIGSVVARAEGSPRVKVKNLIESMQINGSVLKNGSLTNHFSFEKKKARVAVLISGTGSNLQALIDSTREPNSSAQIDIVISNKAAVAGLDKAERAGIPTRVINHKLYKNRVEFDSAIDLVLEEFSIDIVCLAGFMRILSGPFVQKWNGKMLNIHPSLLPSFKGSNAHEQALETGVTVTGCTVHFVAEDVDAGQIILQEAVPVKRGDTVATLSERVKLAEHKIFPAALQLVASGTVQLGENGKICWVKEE
UniProt Q8N9F7: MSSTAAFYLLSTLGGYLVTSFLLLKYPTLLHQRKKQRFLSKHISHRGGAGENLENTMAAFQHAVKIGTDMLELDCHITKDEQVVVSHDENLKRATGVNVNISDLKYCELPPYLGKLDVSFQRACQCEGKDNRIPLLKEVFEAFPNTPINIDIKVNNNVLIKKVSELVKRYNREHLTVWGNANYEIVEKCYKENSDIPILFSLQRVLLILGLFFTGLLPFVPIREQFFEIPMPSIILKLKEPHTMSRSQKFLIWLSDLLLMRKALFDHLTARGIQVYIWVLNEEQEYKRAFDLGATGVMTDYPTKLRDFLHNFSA
UniProt P51570: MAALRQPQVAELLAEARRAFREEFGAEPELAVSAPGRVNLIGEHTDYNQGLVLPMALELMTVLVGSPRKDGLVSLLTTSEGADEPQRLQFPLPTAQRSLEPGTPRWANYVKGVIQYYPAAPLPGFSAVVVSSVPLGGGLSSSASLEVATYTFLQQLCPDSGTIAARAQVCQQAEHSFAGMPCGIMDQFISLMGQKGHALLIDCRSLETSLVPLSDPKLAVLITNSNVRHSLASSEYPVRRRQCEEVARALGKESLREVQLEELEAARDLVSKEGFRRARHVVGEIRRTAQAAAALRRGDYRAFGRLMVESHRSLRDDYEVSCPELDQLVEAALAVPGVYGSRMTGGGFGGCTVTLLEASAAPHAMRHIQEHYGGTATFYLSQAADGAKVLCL
UniProt Q8NB37: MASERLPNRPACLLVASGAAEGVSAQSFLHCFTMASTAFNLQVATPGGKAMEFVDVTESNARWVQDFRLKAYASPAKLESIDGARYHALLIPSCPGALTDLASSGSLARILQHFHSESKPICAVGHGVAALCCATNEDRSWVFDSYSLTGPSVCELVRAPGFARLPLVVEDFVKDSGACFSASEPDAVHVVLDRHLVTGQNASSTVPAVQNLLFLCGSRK
UniProt Q8N2G8: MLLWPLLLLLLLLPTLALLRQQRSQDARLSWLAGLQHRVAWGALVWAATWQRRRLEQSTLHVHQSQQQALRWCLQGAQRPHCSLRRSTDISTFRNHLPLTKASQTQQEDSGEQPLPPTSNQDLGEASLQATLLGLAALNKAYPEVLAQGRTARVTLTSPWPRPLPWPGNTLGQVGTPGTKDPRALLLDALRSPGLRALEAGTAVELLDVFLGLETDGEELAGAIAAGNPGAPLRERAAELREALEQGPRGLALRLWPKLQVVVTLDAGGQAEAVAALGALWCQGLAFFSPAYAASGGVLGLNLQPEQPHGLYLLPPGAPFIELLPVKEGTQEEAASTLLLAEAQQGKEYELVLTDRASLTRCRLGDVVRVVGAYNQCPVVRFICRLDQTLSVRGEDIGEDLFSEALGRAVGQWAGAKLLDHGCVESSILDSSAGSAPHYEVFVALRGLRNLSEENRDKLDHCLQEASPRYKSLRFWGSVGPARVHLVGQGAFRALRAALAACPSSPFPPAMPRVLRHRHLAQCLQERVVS
UniProt Q9NZC3: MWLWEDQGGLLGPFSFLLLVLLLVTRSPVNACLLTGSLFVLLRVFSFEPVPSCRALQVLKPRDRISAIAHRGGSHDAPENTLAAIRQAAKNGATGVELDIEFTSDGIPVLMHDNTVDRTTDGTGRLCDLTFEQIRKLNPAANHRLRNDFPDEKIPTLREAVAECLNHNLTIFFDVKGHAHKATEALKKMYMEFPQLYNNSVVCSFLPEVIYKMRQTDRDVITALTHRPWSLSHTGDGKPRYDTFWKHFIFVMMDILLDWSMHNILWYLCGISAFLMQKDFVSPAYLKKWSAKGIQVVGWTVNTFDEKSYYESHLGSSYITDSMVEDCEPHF
UniProt P51114, whole entry, looked up: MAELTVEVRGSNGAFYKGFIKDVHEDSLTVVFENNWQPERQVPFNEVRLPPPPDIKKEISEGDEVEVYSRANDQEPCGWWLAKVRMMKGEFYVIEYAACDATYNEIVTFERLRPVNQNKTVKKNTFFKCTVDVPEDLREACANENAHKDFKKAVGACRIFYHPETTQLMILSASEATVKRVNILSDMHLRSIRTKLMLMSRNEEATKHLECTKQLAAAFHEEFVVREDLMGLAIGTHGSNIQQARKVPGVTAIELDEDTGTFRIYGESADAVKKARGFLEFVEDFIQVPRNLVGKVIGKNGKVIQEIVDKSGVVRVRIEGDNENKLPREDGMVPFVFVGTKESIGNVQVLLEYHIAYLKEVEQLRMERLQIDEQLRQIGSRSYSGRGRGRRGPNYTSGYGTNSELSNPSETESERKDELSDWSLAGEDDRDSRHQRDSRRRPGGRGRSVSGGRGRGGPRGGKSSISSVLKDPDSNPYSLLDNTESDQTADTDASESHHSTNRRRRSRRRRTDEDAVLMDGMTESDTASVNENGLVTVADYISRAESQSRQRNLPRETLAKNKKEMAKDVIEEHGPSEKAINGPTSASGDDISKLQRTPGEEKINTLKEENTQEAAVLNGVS
UniProt P15976: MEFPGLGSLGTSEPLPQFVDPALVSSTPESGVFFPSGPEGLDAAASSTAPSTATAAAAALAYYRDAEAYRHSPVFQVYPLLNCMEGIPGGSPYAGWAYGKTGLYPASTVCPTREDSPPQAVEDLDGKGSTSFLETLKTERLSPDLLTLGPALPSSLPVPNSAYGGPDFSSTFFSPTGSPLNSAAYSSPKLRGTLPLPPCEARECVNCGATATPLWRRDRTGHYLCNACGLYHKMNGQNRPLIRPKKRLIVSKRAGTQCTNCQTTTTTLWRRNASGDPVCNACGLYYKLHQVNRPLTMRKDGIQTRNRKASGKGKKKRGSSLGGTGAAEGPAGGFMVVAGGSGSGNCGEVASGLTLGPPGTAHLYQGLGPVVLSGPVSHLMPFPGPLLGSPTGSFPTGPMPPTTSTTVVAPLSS
UniProt P55789: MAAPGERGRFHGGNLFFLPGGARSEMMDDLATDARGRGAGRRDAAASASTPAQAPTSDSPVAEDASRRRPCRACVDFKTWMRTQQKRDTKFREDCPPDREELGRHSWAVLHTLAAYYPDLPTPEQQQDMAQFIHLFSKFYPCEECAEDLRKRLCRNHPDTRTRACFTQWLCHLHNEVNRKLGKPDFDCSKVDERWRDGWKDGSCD
UniProt Q92538, whole entry, looked up: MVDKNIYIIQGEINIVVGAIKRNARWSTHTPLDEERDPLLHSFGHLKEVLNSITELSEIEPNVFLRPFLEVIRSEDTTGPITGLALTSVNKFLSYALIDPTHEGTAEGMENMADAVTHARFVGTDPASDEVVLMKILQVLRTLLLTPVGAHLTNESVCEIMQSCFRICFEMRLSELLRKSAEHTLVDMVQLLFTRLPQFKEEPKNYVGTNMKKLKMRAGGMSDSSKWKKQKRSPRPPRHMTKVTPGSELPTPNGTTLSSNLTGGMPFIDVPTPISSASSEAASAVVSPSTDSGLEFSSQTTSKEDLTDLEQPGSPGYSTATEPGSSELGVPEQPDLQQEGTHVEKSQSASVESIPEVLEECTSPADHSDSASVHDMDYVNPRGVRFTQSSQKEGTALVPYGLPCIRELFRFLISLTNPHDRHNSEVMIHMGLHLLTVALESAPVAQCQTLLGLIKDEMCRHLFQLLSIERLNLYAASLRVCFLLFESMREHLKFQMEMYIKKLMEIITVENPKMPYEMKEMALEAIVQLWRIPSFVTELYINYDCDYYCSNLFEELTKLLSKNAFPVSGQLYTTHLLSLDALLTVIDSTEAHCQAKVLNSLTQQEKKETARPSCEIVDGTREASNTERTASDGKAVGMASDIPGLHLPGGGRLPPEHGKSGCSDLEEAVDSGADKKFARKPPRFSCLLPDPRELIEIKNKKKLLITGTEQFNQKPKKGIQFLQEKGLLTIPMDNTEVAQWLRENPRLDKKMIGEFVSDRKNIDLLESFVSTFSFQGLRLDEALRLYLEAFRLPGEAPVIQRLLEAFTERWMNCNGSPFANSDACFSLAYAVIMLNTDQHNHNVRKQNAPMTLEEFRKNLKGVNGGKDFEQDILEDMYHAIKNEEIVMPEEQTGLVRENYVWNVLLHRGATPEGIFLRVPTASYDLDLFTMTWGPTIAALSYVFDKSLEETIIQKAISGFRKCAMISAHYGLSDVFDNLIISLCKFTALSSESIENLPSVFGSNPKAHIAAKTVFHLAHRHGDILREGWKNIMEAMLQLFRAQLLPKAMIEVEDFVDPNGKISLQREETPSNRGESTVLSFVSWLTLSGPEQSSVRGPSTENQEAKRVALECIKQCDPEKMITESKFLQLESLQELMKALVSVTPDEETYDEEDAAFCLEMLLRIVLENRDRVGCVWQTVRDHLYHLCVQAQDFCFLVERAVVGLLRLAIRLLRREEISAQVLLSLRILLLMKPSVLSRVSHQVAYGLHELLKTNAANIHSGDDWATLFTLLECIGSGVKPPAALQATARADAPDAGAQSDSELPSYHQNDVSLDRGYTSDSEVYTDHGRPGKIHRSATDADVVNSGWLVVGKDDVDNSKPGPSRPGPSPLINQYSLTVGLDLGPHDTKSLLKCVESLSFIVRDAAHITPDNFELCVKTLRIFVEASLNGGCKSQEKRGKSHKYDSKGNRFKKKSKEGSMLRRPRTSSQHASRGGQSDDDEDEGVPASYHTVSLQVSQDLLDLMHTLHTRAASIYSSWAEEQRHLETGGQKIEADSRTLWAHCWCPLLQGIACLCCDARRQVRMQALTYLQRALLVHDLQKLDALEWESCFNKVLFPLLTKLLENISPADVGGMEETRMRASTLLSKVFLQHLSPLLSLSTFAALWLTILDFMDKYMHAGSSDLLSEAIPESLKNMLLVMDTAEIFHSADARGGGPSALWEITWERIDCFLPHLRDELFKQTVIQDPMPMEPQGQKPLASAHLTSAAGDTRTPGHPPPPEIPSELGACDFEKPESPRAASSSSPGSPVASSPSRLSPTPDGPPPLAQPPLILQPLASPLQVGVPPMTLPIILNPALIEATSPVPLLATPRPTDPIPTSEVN
UniProt Q9NY12: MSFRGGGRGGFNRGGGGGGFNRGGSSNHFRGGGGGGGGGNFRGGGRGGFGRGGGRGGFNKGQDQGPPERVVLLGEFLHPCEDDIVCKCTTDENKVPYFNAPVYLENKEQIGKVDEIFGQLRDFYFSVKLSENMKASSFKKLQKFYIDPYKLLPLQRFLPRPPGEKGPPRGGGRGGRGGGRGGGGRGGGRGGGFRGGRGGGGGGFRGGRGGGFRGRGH

Columns and labels:
Assay in all cases: log2 fold change, soluble protein after heating vs DMSO (PISA); higher = thermal stabilisation; K562 cells, 10 uM, 30 min; active = over 0.2 and 3.5 SD of the protein, either way, in both replicates (recomputed)
[1] = compound: CC1=C(C=C(C=C1)NC(=O)C2=CC(=CC=C2)C(C)(C)C#N)NC3=CC4=C(C=C3)N=CN(C4=O)C
Summary of the method: (§1)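 Thermal stability values are relative to control samples and come from duplicates. They are expressed as log2 fold changes. For measurement, K562 cells (2×10^6 cells/mL) received 10 μM compound for 30 min, and aliquots were heated for 3 min over 48°C-58°C, pooled, and extracted at 4°C in PBS with 0.5% NP-40. Soluble protein, the supernatant after 21,000xg for 90 min, was quantified by TMTpro 16plex LC-MS/MS with equalised channel sums.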

[2] = compound: CC1=C(C=C(C=C1)NC(=O)C2=CC(=CC=C2)N(C)C)NC(=O)C3=CC=C(C=C3)O
Summary of the method: as §1

[3] = compound: CC1=CC=C(C=C1)SC2=C3C=C(SC3=CN=C2)C(=O)N
Summary of the method: as §1

[4] = compound: CC1=NC(=CC=C1)C2=C(N=C(N2)C(C)(C)C)C3=CC4=NC=CN=C4C=C3
Summary of the method: as §1

Nexturastat A = compound: CCCCN(Cc1ccc(C(=O)NO)cc1)C(=O)Nc1ccccc1 [Nexturastat A]
Summary of the method: as §1

vemurafenib = compound: CCCS(=O)(=O)Nc1ccc(F)c(C(=O)c2c[nH]c3ncc(-c4ccc(Cl)cc4)cc23)c1F [vemurafenib]
Summary of the method: as §1

[5] = compound: CCCS(=O)(=O)Nc1ccc(F)c(C(=O)c2c[nH]c3ncc(Cl)cc23)c1F
Summary of the method: as §1

[6] = compound: CCCc1cc(C)[nH]c(=O)c1CNC(=O)c1cc(-c2ccnc(N3CCN(C)CC3)c2)cc2c1cnn2C(C)C
Summary of the method: as §1

givinostat = compound: CCN(CC)Cc1ccc2cc(COC(=O)Nc3ccc(C(=O)NO)cc3)ccc2c1 [givinostat]
Summary of the method: as §1

barasertib = compound: CCN(CCCOc1ccc2c(Nc3cc(CC(=O)Nc4cccc(F)c4)[nH]n3)ncnc2c1)CCOP(=O)(O)O [barasertib]
Summary of the method: as §1

Measured: log2 fold change

GALNT7 (UniProt Q86SF2)
inactive: [1] 0.036 | [2] -0.009 | [3] 0.072 | [4] -0.014 | Nexturastat A -0.023 | vemurafenib 0.019 | [5] 0.025 | [6] -0.025 | givinostat -0.019 | barasertib 0.001

GART (UniProt P22102)
inactive: [1] 0.07 | [2] -0.028 | [3] 0.017 | [4] 0.009 | Nexturastat A -0.036 | vemurafenib 0.049 | [5] 0.041 | [6] 0.082 | givinostat 0.011 | barasertib 0.042

GDPD1 (UniProt Q8N9F7)
inactive: [1] 0.003 | [2] -0.135 | [3] 0.022 | [4] -0.07 | Nexturastat A -0.026 | vemurafenib 0.022 | [5] -0.081 | [6] 0.099 | givinostat -0.046 | barasertib 0.001

G6PD isoform 2 (UniProt P11413)
inactive: [1] 0.016 | [2] -0.01 | [3] 0.003 | [4] 0.039 | Nexturastat A -0.063 | vemurafenib 0.036 | [5] 0.027 | [6] 0 | givinostat -0.032 | barasertib 0.009

GALK1 isoform 2 (UniProt P51570)
inactive: [1] 0.244 | [2] 0.004 | [3] 0.144 | [4] 0.02 | Nexturastat A -0.082 | vemurafenib 0.144 | [5] 0.183 | [6] 0.033 | givinostat 0.018 | barasertib -0.007

GFPT1 (UniProt Q06210)
inactive: [1] 0.036 | [2] -0.015 | [3] 0.01 | [4] 0.021 | Nexturastat A 0.012 | vemurafenib 0.012 | [5] 0.037 | [6] 0.024 | givinostat -0.027 | barasertib -0.013

GATD1 (UniProt Q8NB37)
inactive: [1] 0.054 | [2] -0.041 | [3] -0.023 | [4] -0.108 | Nexturastat A 0.067 | vemurafenib -0.047 | [5] -0.06 | [6] 0.021 | givinostat 0.013 | barasertib 0.024

GALK2 (UniProt Q01415)
inactive: [1] 0.031 | [2] 0.015 | [3] 0.037 | [4] 0.029 | Nexturastat A -0.056 | vemurafenib 0 | [5] 0.013 | [6] -0.049 | givinostat -0.046 | barasertib 0.005

FNTB (UniProt P49356)
inactive: [1] 0.032 | [2] -0.058 | [3] 0 | [4] 0 | Nexturastat A -0.041 | vemurafenib 0.011 | [5] -0.052 | [6] 0.029 | givinostat -0.083 | barasertib -0.034

FUS (UniProt P35637)
inactive: [1] -0.019 | [2] 0.026 | [3] -0.115 | [4] 0.008 | Nexturastat A 0.091 | vemurafenib -0.08 | [5] -0.101 | [6] 0.163 | givinostat -0.088 | barasertib -0.091

GHDC (UniProt Q8N2G8)
inactive: [1] -0.028 | [2] 0.057 | [3] -0.03 | [4] -0.021 | Nexturastat A -0.113 | vemurafenib -0.041 | [5] -0.044 | [6] -0.011 | givinostat -0.025 | barasertib -0.008

GAPVD1 isoform 6 (UniProt Q14C86)
inactive: [1] 0.004 | [2] -0.041 | [3] 0.046 | [4] 0.019 | Nexturastat A 0.025 | vemurafenib 0.007 | [5] 0.13 | [6] 0.047 | givinostat 0.047 | barasertib 0.034

GCAT isoform 2 (UniProt O75600)
inactive: [1] 0.033 | [2] -0.018 | [3] 0 | [4] 0.011 | Nexturastat A -0.098 | vemurafenib 0.02 | [5] 0.017 | [6] 0.007 | givinostat -0.044 | barasertib 0.006

GCDH (UniProt Q92947)
inactive: [1] -0.017 | [2] -0.004 | [3] 0.014 | [4] 0.009 | Nexturastat A -0.007 | vemurafenib 0 | [5] 0.002 | [6] 0.009 | givinostat 0.004 | barasertib 0.005

GDE1 (UniProt Q9NZC3)
inactive: [1] 0.022 | [2] -0.004 | [3] 0.012 | [4] -0.059 | Nexturastat A 0.02 | vemurafenib -0.033 | [5] -0.009 | [6] 0.064 | givinostat -0.052 | barasertib -0.049

GET4 (UniProt Q7L5D6)
inactive: [1] -0.028 | [2] -0.03 | [3] 0.003 | [4] -0.024 | Nexturastat A 0.127 | vemurafenib 0.052 | [5] 0.039 | [6] -0.009 | givinostat 0.061 | barasertib 0.044

FXR1 (UniProt P51114)
inactive: [1] 0.013 | [2] 0.031 | [3] -0.055 | [4] -0.294 | Nexturastat A 0.426 | vemurafenib 0.028 | [5] -0.014 | [6] 0.353 | givinostat 0.123 | barasertib 0.006

GATA1 (UniProt P15976)
inactive: [1] -0.05 | [2] 0.02 | [3] -0.085 | [4] -0.029 | Nexturastat A -0.104 | vemurafenib -0.06 | [5] -0.035 | [6] -0.003 | givinostat -0.047 | barasertib -0.034

GFER (UniProt P55789)
inactive: [1] 0.071 | [2] 0 | [3] 0.015 | [4] -0.07 | Nexturastat A 0.061 | vemurafenib 0.04 | [5] -0.017 | [6] -0.025 | givinostat -0.239 | barasertib 0.06

GEMIN5 (UniProt Q8TEQ6)
inactive: [1] 0.035 | [2] -0.038 | [3] 0.009 | [4] -0.013 | Nexturastat A -0.004 | vemurafenib 0.015 | [5] 0.093 | [6] 0.018 | givinostat -0.1 | barasertib 0.019

GABPA (UniProt Q06546)
inactive: [1] -0.007 | [2] -0.011 | [3] 0.064 | [4] 0.039 | Nexturastat A 0.008 | vemurafenib 0.062 | [5] 0.09 | [6] -0.004 | givinostat 0.17 | barasertib 0.022

FYCO1 isoform 4 (UniProt Q9BQS8)
inactive: [1] 0.018 | [2] 0.045 | [3] -0.014 | [4] -0.037 | Nexturastat A 0.028 | vemurafenib -0.013 | [5] 0.049 | [6] 0.042 | givinostat 0.035 | barasertib 0.1

GGT2 isoform 3 (UniProt P36268)
inactive: [1] 0.059 | [2] 0.089 | [3] -0.083 | [4] 0.101 | Nexturastat A 0.083 | vemurafenib 0.026 | [5] -0.072 | [6] -0.022 | givinostat -0.097 | barasertib -0.032

FUBP3 (UniProt Q96I24)
inactive: [1] 0.021 | [2] -0.018 | [3] 0.01 | [4] 0.122 | Nexturastat A -0.114 | vemurafenib 0.035 | [5] 0.018 | [6] -0.059 | givinostat -0.023 | barasertib -0.012

GBF1 (UniProt Q92538)
inactive: [1] -0.049 | [2] -0.071 | [3] -0.012 | [4] -0.028 | Nexturastat A 0.078 | vemurafenib 0.028 | [5] 0.059 | [6] 0.014 | givinostat 0.07 | barasertib 0.028

GAR1 (UniProt Q9NY12)
inactive: [1] 0.012 | [2] -0.021 | [3] -0.035 | [4] -0.09 | Nexturastat A 0.17 | vemurafenib -0.05 | [5] -0.031 | [6] 0.099 | givinostat 0.023 | barasertib -0.079

Quoted from the results shown (two entries):
FUBP3 (UniProt Q96I24)
inactive: [1] 0.021 | [2] -0.018 | [3] 0.01 | [4] 0.122 | Nexturastat A -0.114 | vemurafenib 0.035 | [5] 0.018 | [6] -0.059 | givinostat -0.023 | barasertib -0.012

GBF1 (UniProt Q92538)
inactive: [1] -0.049 | [2] -0.071 | [3] -0.012 | [4] -0.028 | Nexturastat A 0.078 | vemurafenib 0.028 | [5] 0.059 | [6] 0.014 | givinostat 0.07 | barasertib 0.028

Later entries.

GGH (UniProt Q92820)
inactive: [1] 0.004 | [2] 0.017 | [3] -0.001 | [4] 0 | Nexturastat A -0.013 | vemurafenib 0.026 | [5] -0.026 | [6] -0.014 | givinostat -0.012 | barasertib -0.008

GEMIN4 (UniProt P57678)
inactive: [1] -0.003 | [2] -0.059 | [3] 0.025 | [4] -0.158 | Nexturastat A 0.283 | vemurafenib -0.139 | [5] 0.177 | [6] 0.182 | givinostat 0.203 | barasertib -0.19
